Assay results published in publication PMC5527848.

Chains of the proteins cited; added tags and fusions are not shown. Lines headed by an entry give the natural chain unless they say otherwise; changes in a name come on top.
UniProt G0S867: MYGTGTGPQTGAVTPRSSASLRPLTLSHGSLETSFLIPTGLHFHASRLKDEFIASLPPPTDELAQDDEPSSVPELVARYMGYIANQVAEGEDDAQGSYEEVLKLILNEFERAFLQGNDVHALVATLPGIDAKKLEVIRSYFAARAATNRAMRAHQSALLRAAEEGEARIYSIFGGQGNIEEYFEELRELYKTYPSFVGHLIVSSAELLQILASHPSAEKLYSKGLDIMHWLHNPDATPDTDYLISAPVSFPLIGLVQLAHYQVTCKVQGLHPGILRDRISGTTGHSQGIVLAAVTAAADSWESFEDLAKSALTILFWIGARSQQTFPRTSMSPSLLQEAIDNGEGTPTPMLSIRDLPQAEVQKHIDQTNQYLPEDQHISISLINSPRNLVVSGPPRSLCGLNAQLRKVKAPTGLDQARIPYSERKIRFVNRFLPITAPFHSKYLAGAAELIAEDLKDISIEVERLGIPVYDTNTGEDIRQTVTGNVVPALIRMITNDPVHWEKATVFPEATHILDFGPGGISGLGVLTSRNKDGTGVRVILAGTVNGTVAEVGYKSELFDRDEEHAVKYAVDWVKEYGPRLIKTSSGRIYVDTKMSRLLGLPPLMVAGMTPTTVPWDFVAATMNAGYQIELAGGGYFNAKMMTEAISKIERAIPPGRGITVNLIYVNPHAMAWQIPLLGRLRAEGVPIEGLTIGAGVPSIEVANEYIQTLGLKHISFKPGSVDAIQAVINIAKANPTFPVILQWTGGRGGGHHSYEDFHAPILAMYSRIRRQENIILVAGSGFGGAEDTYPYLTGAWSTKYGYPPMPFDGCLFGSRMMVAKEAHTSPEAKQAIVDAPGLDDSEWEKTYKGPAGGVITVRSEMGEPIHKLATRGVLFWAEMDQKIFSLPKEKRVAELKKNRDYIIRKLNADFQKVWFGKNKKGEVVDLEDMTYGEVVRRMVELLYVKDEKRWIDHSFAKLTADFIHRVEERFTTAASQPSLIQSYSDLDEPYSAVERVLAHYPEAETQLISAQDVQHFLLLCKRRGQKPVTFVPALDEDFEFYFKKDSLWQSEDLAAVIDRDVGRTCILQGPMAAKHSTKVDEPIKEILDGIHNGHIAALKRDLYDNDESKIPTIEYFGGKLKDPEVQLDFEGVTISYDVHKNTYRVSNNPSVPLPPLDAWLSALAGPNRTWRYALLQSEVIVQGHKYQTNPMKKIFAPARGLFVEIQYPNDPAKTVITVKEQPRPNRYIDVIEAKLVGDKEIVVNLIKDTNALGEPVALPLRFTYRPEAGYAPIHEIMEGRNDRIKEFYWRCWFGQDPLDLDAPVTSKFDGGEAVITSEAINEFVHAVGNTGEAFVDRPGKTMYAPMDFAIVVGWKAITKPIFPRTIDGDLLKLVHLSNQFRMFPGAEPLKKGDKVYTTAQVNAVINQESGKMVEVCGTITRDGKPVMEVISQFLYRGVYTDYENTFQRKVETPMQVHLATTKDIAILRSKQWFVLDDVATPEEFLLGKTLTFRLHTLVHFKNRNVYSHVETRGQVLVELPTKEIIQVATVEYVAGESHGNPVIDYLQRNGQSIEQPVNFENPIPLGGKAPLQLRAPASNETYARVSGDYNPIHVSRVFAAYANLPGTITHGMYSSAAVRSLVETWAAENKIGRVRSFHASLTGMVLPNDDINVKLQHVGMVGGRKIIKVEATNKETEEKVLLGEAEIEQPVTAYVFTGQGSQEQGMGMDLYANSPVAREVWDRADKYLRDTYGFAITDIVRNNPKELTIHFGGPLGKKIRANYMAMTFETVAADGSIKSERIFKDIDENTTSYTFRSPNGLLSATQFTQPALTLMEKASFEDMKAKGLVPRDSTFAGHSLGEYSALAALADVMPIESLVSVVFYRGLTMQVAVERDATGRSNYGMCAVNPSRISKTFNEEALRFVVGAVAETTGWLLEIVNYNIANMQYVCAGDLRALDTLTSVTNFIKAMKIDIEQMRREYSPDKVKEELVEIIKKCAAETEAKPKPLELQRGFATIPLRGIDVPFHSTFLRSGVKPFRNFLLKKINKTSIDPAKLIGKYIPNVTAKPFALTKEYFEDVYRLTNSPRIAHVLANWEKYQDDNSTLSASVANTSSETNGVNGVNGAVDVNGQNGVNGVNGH
UniProt G0S866: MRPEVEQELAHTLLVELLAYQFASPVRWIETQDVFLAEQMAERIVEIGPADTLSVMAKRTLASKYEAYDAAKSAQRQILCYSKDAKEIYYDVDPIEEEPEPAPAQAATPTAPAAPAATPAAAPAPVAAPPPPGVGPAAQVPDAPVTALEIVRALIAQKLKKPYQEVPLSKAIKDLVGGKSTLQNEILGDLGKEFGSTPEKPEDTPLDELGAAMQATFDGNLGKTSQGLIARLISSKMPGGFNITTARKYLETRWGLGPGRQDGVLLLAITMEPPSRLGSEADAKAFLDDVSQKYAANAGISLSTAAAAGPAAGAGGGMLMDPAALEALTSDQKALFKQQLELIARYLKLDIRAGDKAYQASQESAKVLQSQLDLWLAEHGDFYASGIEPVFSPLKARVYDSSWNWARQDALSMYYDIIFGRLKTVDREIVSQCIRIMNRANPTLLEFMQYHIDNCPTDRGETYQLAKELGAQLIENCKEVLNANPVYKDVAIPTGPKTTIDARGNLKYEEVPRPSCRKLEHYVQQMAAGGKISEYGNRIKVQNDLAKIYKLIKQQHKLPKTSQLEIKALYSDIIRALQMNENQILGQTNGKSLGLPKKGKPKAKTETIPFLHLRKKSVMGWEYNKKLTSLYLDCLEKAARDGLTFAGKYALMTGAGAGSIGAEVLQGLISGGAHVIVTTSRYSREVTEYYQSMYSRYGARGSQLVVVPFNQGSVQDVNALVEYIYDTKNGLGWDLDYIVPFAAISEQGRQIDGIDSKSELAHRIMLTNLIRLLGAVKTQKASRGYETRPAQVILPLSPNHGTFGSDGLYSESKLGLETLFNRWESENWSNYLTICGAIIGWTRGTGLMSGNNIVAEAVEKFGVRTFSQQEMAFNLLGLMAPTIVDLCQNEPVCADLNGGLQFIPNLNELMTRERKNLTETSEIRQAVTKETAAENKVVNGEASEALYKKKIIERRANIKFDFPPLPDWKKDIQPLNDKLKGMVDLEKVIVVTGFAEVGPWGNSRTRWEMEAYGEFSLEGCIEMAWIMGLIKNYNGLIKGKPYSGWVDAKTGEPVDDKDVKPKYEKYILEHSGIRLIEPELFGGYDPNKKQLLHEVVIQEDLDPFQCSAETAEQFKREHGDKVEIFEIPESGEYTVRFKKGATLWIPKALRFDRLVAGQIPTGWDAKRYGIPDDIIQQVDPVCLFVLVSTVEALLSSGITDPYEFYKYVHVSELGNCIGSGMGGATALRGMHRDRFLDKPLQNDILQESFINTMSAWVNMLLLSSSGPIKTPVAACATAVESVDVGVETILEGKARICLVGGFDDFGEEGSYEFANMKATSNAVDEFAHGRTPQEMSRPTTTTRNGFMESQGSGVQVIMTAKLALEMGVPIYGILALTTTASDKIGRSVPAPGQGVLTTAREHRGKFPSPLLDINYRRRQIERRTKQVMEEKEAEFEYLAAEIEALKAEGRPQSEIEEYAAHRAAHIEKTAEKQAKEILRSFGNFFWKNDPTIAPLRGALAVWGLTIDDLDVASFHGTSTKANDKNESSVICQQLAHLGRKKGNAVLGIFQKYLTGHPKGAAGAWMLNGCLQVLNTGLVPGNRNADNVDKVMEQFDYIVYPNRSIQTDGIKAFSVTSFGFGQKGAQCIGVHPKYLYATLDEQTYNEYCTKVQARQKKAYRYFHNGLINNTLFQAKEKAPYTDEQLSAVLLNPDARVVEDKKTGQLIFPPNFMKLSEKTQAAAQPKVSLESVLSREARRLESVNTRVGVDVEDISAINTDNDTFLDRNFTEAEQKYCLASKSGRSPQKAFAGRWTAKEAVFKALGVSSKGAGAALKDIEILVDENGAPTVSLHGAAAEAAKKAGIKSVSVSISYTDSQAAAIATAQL

Molecular target: fatty acid synthase subunit CTHT_0037750 (Chaetomium thermophilum (endogenous in cell extract)) (UniProt G0S867)
Experiment: cryo-EM structure; ctFAS ~50% enriched in SEC fractions 7-9 of the cell extract, no cross-linker; 3,933 particles, 4.7 Å

“fatty acid synthase subunit CTHT_0037740 (from UniProt G0S866) (enzyme)” was tested, and the binding was “binds”.

These are yes or no findings as the source states them, for the method shown. Binding calls can cover weak binding; strength is not graded here.
